Measurements from patent publication US20170362329A1 (PELICAN THERAPEUTICS, published 2017).
No constants are given. Whether binding was seen depends on the method and setting. Some results given as binding are weak or reduced against the parent protein; the word gives no strength. Tags and fused reporters may be left off the sequences shown.

Legend:
human TNFRSF25-Fc [1] = target: T1, human TNFRSF25-Fc (human, UniProt Q93038 25-199, limits assumed); assay: ELISA
T1 construct: also called human TNFRSF25 fusion protein; not shown: Fc part
T1 sequence (looked up): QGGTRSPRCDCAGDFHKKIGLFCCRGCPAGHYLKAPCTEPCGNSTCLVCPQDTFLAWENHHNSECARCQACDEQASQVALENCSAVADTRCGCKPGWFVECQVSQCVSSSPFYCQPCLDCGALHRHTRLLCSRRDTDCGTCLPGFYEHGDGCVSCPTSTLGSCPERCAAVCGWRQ

human TNFRSF25-Fc [2] = target: T1, human TNFRSF25-Fc; assay: ELISA, binding of PTX-25 to human TNFRSF25-Fc, OD 450 nm

B1: PTX-25 (human TNFRSF25-specific monoclonal antibody, pre-humanized parental) (antibody, V domains shown)
VH: EVQLVESGGGLSQPGNSLQLSCEASGFTFSNHDLNWVRQAPGKGLEWVAYISSASGLISYADAVRGRFTISRDNAKNSLFLQMNNLKSEDTAMYYCARDPPYSGLYALDFWGQGTQVTVSS
VL: QPVLTQSPSASASLSGSVKLTCTLSSELSSYTIVWYQQRPDKAPKYVMYLKSDGSHSKGDGIPDRFSGSSSGAHRYLSISNVQSEDDATYFCGAGYTLAGQYGWVFGSGTKVTVL
notes: also called Pre-humanized Parental PTX-25; human TNFRSF25-specific mAb
Human TNFRSF25-Fc [1]
  binding: binds
Human TNFRSF25-Fc [2]
  binding: binds
